Experimental findings from PMC7032732 are described below.

These are yes or no findings as the source states them, for the method shown. Binding seen in cells or lysates may run through a third protein. Some entries that bind do so weakly or less than the wild type. Tags and fused reporters may be left off the sequences shown.

In assay [1] the target is T1, HA-Cdc4 (cdc4Δ::HA-CDC4 strain YMB10217) (S. cerevisiae) (UniProt P07834).
T1 sequence: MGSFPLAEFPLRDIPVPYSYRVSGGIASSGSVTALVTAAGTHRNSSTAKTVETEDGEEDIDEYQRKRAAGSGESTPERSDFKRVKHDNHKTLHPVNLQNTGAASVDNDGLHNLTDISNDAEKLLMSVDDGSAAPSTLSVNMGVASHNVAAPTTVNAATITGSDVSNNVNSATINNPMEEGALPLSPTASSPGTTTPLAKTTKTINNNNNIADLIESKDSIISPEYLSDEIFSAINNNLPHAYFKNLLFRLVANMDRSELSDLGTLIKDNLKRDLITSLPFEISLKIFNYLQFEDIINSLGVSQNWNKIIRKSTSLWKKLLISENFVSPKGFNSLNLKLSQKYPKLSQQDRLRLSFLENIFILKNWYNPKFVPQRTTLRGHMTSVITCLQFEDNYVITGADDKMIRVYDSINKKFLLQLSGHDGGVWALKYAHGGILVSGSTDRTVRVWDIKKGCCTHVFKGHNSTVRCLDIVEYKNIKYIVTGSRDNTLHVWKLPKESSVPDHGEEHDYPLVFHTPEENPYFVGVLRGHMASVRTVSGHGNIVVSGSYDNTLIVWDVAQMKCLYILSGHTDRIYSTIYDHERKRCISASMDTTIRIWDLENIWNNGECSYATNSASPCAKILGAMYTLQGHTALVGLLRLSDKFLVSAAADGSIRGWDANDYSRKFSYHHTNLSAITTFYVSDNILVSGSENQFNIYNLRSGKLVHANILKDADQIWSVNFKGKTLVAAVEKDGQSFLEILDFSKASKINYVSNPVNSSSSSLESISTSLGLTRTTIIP
Kind of assay: co-IP; IP with anti-HA agarose from whole cell extracts of yeast grown in selective glucose medium at 25°C; all tagged proteins from their native promoters; extraction buffer 40mM Hepes pH7.5, 350mM NaCl, 0.1% Tween, 10% glycerol; 4°C overnight; WT strains, also cdc4-1 (Met30 with Cse4 not affected) and met30-6 (Cdc4 with Cse4 greatly reduced, restored by plasmid-borne MET30 or met30ΔD).

Assay [2] deals with HA-Cse4 overexpressed from the GAL promoter (GAL-HA-CSE4, pMB1597) (S. cerevisiae) (UniProt P36012). The assay can be described thus: co-IP; IP with anti-HA agarose from whole cell extracts of yeast; HA-Cse4 transiently induced from the GAL promoter in galactose medium for 3 hours at 25°C; extraction buffer 40mM Hepes pH7.5, 350mM NaCl, 0.1% Tween, 10% glycerol; 4°C overnight; Western blot with anti-Myc and anti-HA. (In western blotting, separated proteins are transferred to a membrane and probed.)

Assay [3] addresses HA-Cse4 expressed from the CSE4 promoter (HA-CSE4, pMB1831) (S. cerevisiae) (UniProt P36012). Kind of assay: co-IP; IP with anti-HA agarose from whole cell extracts of yeast grown in selective glucose medium at 25°C; all tagged proteins from their native promoters; extraction buffer 40mM Hepes pH7.5, 350mM NaCl, 0.1% Tween, 10% glycerol; 4°C overnight; WT strains, also cdc4-1 (Met30 with Cse4 not affected) and met30-6 (Cdc4 with Cse4 greatly reduced, restored by plasmid-borne MET30 or met30ΔD).

For assay [4], the target named is T2, Myc-Met30 (Myc-MET30, pK699) (S. cerevisiae) (UniProt P39014).
T2 sequence: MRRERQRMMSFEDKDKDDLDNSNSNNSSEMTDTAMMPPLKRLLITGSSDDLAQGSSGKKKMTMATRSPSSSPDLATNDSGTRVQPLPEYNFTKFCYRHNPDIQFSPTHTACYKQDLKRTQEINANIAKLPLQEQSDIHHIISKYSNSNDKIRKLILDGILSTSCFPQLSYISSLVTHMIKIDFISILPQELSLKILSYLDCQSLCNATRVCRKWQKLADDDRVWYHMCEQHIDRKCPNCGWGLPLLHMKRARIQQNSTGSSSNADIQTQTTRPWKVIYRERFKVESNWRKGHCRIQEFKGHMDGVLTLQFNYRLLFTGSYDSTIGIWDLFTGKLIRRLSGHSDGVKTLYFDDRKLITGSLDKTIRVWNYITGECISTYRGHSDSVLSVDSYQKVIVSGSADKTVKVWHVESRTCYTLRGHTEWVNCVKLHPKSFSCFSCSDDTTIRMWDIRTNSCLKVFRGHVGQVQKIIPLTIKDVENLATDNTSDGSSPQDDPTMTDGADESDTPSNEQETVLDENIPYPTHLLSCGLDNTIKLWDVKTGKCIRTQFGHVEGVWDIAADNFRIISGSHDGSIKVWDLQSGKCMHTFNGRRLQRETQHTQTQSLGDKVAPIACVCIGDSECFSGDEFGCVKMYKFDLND
Kind of assay: co-IP; IP with anti-Myc from whole cell extracts of the cdc4Δ::HA-CDC4 strain with Myc-MET30, grown at 25°C; tagged proteins from their native promoters; Western blot with anti-HA and anti-Myc.

B1: Myc-met30Δ77 (Δ1–77 aa, pMB1835) (domain or fragment, UniProt P39014 78-640)
chain: DSGTRVQPLPEYNFTKFCYRHNPDIQFSPTHTACYKQDLKRTQEINANIAKLPLQEQSDIHHIISKYSNSNDKIRKLILDGILSTSCFPQLSYISSLVTHMIKIDFISILPQELSLKILSYLDCQSLCNATRVCRKWQKLADDDRVWYHMCEQHIDRKCPNCGWGLPLLHMKRARIQQNSTGSSSNADIQTQTTRPWKVIYRERFKVESNWRKGHCRIQEFKGHMDGVLTLQFNYRLLFTGSYDSTIGIWDLFTGKLIRRLSGHSDGVKTLYFDDRKLITGSLDKTIRVWNYITGECISTYRGHSDSVLSVDSYQKVIVSGSADKTVKVWHVESRTCYTLRGHTEWVNCVKLHPKSFSCFSCSDDTTIRMWDIRTNSCLKVFRGHVGQVQKIIPLTIKDVENLATDNTSDGSSPQDDPTMTDGADESDTPSNEQETVLDENIPYPTHLLSCGLDNTIKLWDVKTGKCIRTQFGHVEGVWDIAADNFRIISGSHDGSIKVWDLQSGKCMHTFNGRRLQRETQHTQTQSLGDKVAPIACVCIGDSECFSGDEFGCVKMYKFDLND
Take B1: the binding entry in assay [1] is listed as “binds”.

B2: Myc-met30Δ113 (Δ1–113 aa, pMB1837) (domain or fragment, UniProt P39014 114-640)
chain: QDLKRTQEINANIAKLPLQEQSDIHHIISKYSNSNDKIRKLILDGILSTSCFPQLSYISSLVTHMIKIDFISILPQELSLKILSYLDCQSLCNATRVCRKWQKLADDDRVWYHMCEQHIDRKCPNCGWGLPLLHMKRARIQQNSTGSSSNADIQTQTTRPWKVIYRERFKVESNWRKGHCRIQEFKGHMDGVLTLQFNYRLLFTGSYDSTIGIWDLFTGKLIRRLSGHSDGVKTLYFDDRKLITGSLDKTIRVWNYITGECISTYRGHSDSVLSVDSYQKVIVSGSADKTVKVWHVESRTCYTLRGHTEWVNCVKLHPKSFSCFSCSDDTTIRMWDIRTNSCLKVFRGHVGQVQKIIPLTIKDVENLATDNTSDGSSPQDDPTMTDGADESDTPSNEQETVLDENIPYPTHLLSCGLDNTIKLWDVKTGKCIRTQFGHVEGVWDIAADNFRIISGSHDGSIKVWDLQSGKCMHTFNGRRLQRETQHTQTQSLGDKVAPIACVCIGDSECFSGDEFGCVKMYKFDLND
As to B2, the binding result in assay [1] is on record as “binds”.

B3: Myc-Met30 (Myc-MET30, pK699) (protein, UniProt P39014 1-640)
chain: T2 sequence
For B3, the binding entry in assay [2], in assay [3] and in assay [1] was “binds” each time.

B4: HA-Cdc4 (cdc4Δ::HA-CDC4 strain YMB10217) (protein, UniProt P07834 1-779)
chain: T1 sequence
Turning to B4, the binding result in assay [4] is given as “binds”.
